Assay results taken from paper PMC7606486, “CFAP45 deficiency causes situs abnormalities and asthenospermia by disrupting an axonemal adenine nucleotide homeostasis module” (Nature Communications, 2020).
These are yes or no findings as the source states them, for the method shown. Binding seen in cells or lysates may run through a third protein. Here binding means that the protein was enriched with, or labelled near, the bait; the list need not be complete. Where a sequence is shown, tags or fusion partners need not be part of it.

Protein sequences, listed by entry. Tags and fused reporters are not part of them. Lines headed by an entry give the natural chain unless they say otherwise; changes in a name come on top.
UniProt A0A4X1T4U3: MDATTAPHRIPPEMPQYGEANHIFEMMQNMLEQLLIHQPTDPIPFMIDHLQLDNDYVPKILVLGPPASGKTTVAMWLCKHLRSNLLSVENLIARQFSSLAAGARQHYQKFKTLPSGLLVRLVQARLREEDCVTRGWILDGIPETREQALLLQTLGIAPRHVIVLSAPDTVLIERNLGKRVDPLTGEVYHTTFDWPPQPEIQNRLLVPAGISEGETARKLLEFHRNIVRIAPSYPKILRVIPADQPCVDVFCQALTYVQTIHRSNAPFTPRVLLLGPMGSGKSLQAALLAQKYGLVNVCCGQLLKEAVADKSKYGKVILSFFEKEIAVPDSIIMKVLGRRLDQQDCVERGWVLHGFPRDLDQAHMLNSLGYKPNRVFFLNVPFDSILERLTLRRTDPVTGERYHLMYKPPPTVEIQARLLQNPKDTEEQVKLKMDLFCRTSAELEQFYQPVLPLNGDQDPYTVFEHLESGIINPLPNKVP
UniProt A0A286ZPL5: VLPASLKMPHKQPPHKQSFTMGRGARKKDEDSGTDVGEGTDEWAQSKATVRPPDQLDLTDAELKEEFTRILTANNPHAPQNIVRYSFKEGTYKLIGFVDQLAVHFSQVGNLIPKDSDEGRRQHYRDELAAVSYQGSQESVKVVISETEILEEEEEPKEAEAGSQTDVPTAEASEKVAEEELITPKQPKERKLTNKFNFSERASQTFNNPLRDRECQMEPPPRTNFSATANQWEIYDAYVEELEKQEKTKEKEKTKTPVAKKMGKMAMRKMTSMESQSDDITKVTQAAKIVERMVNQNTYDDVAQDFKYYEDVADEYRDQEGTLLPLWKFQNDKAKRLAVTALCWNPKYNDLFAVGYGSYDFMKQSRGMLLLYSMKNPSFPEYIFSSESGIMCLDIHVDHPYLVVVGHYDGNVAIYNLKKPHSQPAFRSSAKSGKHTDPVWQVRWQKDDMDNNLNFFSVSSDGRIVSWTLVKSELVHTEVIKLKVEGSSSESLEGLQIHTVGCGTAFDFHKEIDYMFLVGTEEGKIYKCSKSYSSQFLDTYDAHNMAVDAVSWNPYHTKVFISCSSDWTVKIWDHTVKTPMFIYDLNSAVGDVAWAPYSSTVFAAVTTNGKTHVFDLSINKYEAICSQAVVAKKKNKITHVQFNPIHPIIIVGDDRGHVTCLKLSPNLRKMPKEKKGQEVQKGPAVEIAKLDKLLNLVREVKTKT
UniProt F1RKB1: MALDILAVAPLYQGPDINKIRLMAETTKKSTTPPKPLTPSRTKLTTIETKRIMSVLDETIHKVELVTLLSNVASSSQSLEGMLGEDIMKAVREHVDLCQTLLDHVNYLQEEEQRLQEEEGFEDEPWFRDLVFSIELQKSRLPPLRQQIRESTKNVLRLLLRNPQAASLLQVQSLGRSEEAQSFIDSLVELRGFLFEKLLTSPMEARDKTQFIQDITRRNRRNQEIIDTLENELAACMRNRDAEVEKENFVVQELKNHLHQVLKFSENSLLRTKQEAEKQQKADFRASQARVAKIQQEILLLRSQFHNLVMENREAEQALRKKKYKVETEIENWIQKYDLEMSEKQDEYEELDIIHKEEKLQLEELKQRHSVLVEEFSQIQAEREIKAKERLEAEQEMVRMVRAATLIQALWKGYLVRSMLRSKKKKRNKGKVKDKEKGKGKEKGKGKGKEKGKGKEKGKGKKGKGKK

Target: T1, CFAP52 (cilia and flagella associated protein 52), native porcine (pig (endogenous in porcine respiratory cells)) (UniProt F1SS88)
T1 sequence: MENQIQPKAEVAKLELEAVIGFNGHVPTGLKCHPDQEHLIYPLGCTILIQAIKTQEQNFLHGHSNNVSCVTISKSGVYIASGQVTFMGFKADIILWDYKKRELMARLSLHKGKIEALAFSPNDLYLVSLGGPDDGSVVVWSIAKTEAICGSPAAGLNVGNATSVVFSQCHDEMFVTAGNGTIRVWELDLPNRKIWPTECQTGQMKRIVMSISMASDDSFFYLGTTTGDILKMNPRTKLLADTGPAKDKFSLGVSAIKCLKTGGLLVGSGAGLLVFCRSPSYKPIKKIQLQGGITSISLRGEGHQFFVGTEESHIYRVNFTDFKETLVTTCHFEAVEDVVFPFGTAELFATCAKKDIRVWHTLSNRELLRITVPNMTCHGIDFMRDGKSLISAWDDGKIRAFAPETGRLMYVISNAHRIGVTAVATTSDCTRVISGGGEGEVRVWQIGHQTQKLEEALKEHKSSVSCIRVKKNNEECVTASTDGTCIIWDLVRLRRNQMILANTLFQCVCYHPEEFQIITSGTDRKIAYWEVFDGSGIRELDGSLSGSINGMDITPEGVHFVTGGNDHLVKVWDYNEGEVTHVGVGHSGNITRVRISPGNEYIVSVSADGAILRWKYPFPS
Test: affinity purification with mass spectrometry; native CFAP52 immunoprecipitates of isolated porcine respiratory cells (PRC) analysed by MS; three independent experiments

| binding | Substance |
| --- | --- |
| binds | adenylate kinase 8 (AK8), native porcine (from UniProt A0A4X1T4U3 1-479) (enzyme) |
| binds | DNAI1, native porcine (from UniProt A0A286ZPL5 1-704) |
| binds | dynein regulatory complex protein IQCD, native porcine (from UniProt F1RKB1) |
